# Primary screen of a compound library

Mtb cholesterol medium: 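Phenotypic screen: M. tuberculosis growth, cholesterol and DPPC medium, 4 days; the read-out is not stated. Concentration: 50 µM. The record gives no direction; compounds that gave an IC50 in retests scored well above the rest, so higher reads as more growth inhibition. Size under these conditions: about 69,000 compounds, about 370 of them at 50% or above in at least one test.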
Mtb glucose medium: 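Whole-cell growth test on Mycobacterium tuberculosis, read after 3 days in glucose-containing 7H9 medium; the read-out is not stated. Concentration: 50 µM. Direction is inferred from retests: higher values go with more growth inhibition. Size under these conditions: about 69,000 compounds, about 760 of them at 50% or above in at least one test.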

Values are the deposited “Percent Effect”, in %.
The record does not define 0% and 100%; most values in the screen are far below 50% and negative numbers occur (in some assays of this library far below -100).
This is an unselected part of the compounds tested.
Two or more numbers in one place are separate tests of the same structure; such repeats can differ widely.

structure	Mtb cholesterol medium	Mtb glucose medium
O[C@@H]1CN(c2nc3ccccc3o2)CC[C@H]1c1ccc2c(c1)OCO2	-21.07	-32.97
CN(C)C(=O)c1c[nH]nc1C1CCN(S(=O)(=O)c2ccccc2)CC1	-12.81	-14.31
CS(=O)(=O)N1CCCC(Cc2ccnc3ccncc23)CC1 (configuration not stated)	-9.056	-5.057
CN(CC(=O)N1CCCC1)C(=O)c1ccccc1Nc1ccccc1	-11.87	-9.866 and 9.987
COc1cc(C)ccc1OCC(=O)NS(=O)(=O)c1ccc(Br)s1	-7.017	-14.89
COCCN1CCC2(CC1)CC(N1CCOCC1)c1cc(C)ccc12.O=C(O)C(F)(F)F.O=C(O)C(F)(F)F (configuration not stated)	-17.49	-26.26
Fc1cccc(-c2nnn3c2COC(CNCc2nccs2)C3)c1.O=C(O)C(F)(F)F (configuration not stated)	-24.81	-21.59
c1ccc2oc(CN3CCCC3c3noc(C4CC4)n3)nc2c1 (configuration not stated)	-3.147	-21.75
Cc1nc2c(c(C)c1CC(=O)NCc1ccc(F)cc1)c(=O)[nH]n2C	-8.047	-10.46
CC(C)(C)[S+]([O-])CCNC(=O)c1cccc2ncccc12 (configuration not stated)	-7.323	-6.25
COCCN1CCC2(CCCN(c3ncccn3)C2)C1.O=C(O)C(F)(F)F (configuration not stated)	-3.938	24.92
CNC(=O)Cn1c(-c2ccco2)nn(-c2ccccc2OC)c1=O	-10.95	-39.62
c1csc(-c2noc(CN3CCc4cncnc4C3)n2)c1	16.42	6.419 and -5.014
CC(NC(=O)Nc1cccnc1N1CCOCC1)c1ccncc1 (configuration not stated)	-11.72	-9.521 and 1.772
Cc1nc(CN2CCC3(CC2)NC(=O)CC3c2ccncc2)cs1.O=C(O)C(F)(F)F.O=C(O)C(F)(F)F (configuration not stated)	-8.637 and -7.626	-5.6
NC(=O)CN(C(=O)c1cccc(C(F)(F)F)c1)C1CCCC1	-10.96	2.564
Cn1cc(-c2nnn3c2COC(CNC(=O)c2cccs2)C3)cn1 (configuration not stated)	-12.09	-38.17
O=C(Nc1ccc(F)c(Br)c1)N1CCCC1	35.91 and 30.78	36.44
CCCc1nnc(N2CCC(N3CCCC3)CC2)o1	-25.26	-4.698 and -47.61
CNc1cc(C)nc(C2CN(Cc3ccc(C)nc3)CCO2)c1 (configuration not stated)	6.524	16.77
Fc1ccc(CN2CCCC3(CCN(Cc4ncc[nH]4)C3)C2)cc1F (configuration not stated)	38.28	51.87
CN1CCN2CCN(Cc3cnc(NCc4ccccc4)nc3)CC2C1 (configuration not stated)	-25.1	-8.159
Cc1cccc2c1cnn2CCCNC(=O)C1CC1	1.956	12.17
CC(NC(=O)c1cc(C(C)C)[nH]n1)C(=O)Nc1ccccc1 (configuration not stated)	5.507	6.574
CC(=O)Nc1ccc(CNC(=O)CNCc2nnc(C)o2)cc1	-9.811	-9.415 and 3.509
CCc1ccccc1OC1CN(CC2CCOC2)C1 (configuration not stated)	-15.46	-2.447
CCCc1nccn1CCn1cnc2ccsc2c1=O	-5.817	-17.28
O=C(CCCN1CCCCC1)NC(C(=O)O)c1ccc(Cl)cc1 (configuration not stated)	-10.69	2.351
O=C(NCC1CCC2(CC1)OCCO2)c1cccc(-n2cccn2)c1	-12.41	-20.95
CC(O)c1cn(Cc2cccc(C(F)(F)F)c2)nn1 (configuration not stated)	-6.275	-21.11 and 1.496
COCC(=O)NCc1cc(=O)n2c(n1)CN(Cc1ccco1)CCC2	-20.62	-26.71
Fc1cnc(N2CCOCC3(CCCNC3)C2)nc1 (configuration not stated)	-26.75	-43.36
CC(C)c1cc(NC(=O)CN2CCCC2Cn2cccn2)on1 (configuration not stated)	17.42	6.727
O=C(Cc1c[nH]c2ccccc12)NCC1CCN(Cc2c[nH]cn2)C1 (configuration not stated)	10.07	37.56
Cc1ncsc1C(=O)N1CCCC(c2noc(C(C)C)n2)C1 (configuration not stated)	-4.558	4.804 and -6.096
COCc1ncc(CN2CCC3(CCC(=O)N(CC(C)O)C3)CC2)cn1 (configuration not stated)	-1.371	29.67
FC(F)(F)c1cc(NCCCn2cccn2)nc(-c2cccnc2)n1	-16.57	-4.403
O=c1oc(-c2ccc(F)cc2)nn1CC1CCOC1 (configuration not stated)	25.83	1.255 and 33.72
Cc1cnn(CC2CCCCN2CCCS(=O)(=O)N(C)C)c1 (configuration not stated)	-8.444	-12.38
O=C(N[C@H]1COC[C@@H]1N1CCCC1)c1csc(-c2cccs2)n1	1.198	16.29
O=C(NC[C@H]1CC[C@H](c2ccnc3ncnn32)CC1)c1ccccn1	3.752	10.88
COc1cccc(CCC2CCCN(C(=O)C3=NN(C)C(=O)CC3)C2)c1 (configuration not stated)	25.84	20.93
COc1ccc(CCN2CC(NCc3ncc[nH]3)CC2=O)cc1 (configuration not stated)	12.6	-3.415
N#Cc1ccccc1OCCN1CCC(C(=O)N2CCOCC2)CC1	-16.38	-30.21
Cc1noc(-c2cccnc2N(C)Cc2cscn2)n1	-7.665	-28.17
CN(C)[C@@H]1CO[C@H](CNC(=O)c2cccs2)[C@H]1O	0.6326	-15.64 and -0.6764
Cc1nn(C)c(C)c1C1CCCN1c1ncnc2[nH]ccc12 (configuration not stated)	-6.109	2.737 and -7.009
Cc1nn2cnnc2c(C)c1CCC(=O)Nc1nc2c(s1)CCC2	1.467	13.73 and 0.6958
O=C(O)C(F)(F)F.[H][C@@]12CN(C(=O)c3cc(C)oc3C)C[C@]1([H])OCCN2CCN1CCCC1	-8.076 and -5.15	-19.67
CC(C)Nc1cccc(CNC(=O)N2CCCC2)c1	14.05	11.61
c1cnc2[nH]c(C3CCNCC3)c(CN3CCOCC3)c2c1	0.04289	-3.846
NC(=O)c1csc(N2CCN(C3CCc4ccccc4C3)CC2)n1 (configuration not stated)	19.67	18.22 and 14.86
CS(=O)(=O)NCC1Cc2ccccc2O1 (configuration not stated)	-5.146	-2.378
O=C(c1cccnc1)N1CCc2[nH]nc(Nc3ccccc3)c2C1	1.186 and -1.138	4.642
C[C@@H]1CN(CC(C)(C)N2CCCCC2)CC[C@@]1(O)C1CC1	0.2233	23.84
Cc1cc(C)nc(N2CCC(C(=O)Nc3ccc(C(C)C)cc3)CC2)n1	-2.445	-6.855
CS(=O)(=O)N1CCCCC1CCc1ccc(O)cc1 (configuration not stated)	-27.42	-8.361 and -16.24
COc1ccccc1[C@@H]1CN(CC2CCC2)C[C@H]1C(=O)O	-24.18	-18.68
COc1ccc2c(c1)NC(=O)C2OC(=O)CC(C)(C)C (configuration not stated)	-2.535	5.943
CN(CCCNC(=O)c1ccccc1OCC(N)=O)CC(F)(F)F	4.222	13.83
Oc1cc(C2CCCCN2C2CCCC2)nc(-c2cccnc2)n1 (configuration not stated)	-1.929	-21.78
COc1nn(C)cc1C(=O)NCC(=O)Nc1cccnc1	-19.45	-29.05 and 6.728
O=C(Nc1cc(-n2cccc2)ccc1F)N1CCCC1	-12.74	9.067
CCc1nc(CCNc2ncccc2C#N)sc1C	2.762	16.44 and 22.29
CC(C)c1nc(C2CCCN(C(=O)CCCn3cncn3)C2)no1 (configuration not stated)	1.347	6.82
O=C(CN1CCCCCCC1=O)NCc1ccccn1	-11.52	14.95
Cc1ncsc1COC(=O)c1cccc2c1OCCO2	-9.149	-3.717
COc1ccccc1OCCCN1CC=C(c2cnn(C)c2)CC1	-2.81	20.54
CC(C)c1nc(C2CCCN2Cc2ccno2)no1 (configuration not stated)	11.64	6.385
CSCC(C)N(C)S(=O)(=O)c1ccc(Cl)cc1C#N (configuration not stated)	3.553	8.243 and 14.96
Cc1cc(C)n(CC(=O)N2CCCCC2CCN2CCCC2=O)c(=O)n1 (configuration not stated)	-8.597 and -19.19	-27.01

The first 8 entries again:

structure	Mtb cholesterol medium	Mtb glucose medium
O[C@@H]1CN(c2nc3ccccc3o2)CC[C@H]1c1ccc2c(c1)OCO2	-21.07	-32.97
CN(C)C(=O)c1c[nH]nc1C1CCN(S(=O)(=O)c2ccccc2)CC1	-12.81	-14.31
CS(=O)(=O)N1CCCC(Cc2ccnc3ccncc23)CC1 (configuration not stated)	-9.056	-5.057
CN(CC(=O)N1CCCC1)C(=O)c1ccccc1Nc1ccccc1	-11.87	-9.866 and 9.987
COc1cc(C)ccc1OCC(=O)NS(=O)(=O)c1ccc(Br)s1	-7.017	-14.89
COCCN1CCC2(CC1)CC(N1CCOCC1)c1cc(C)ccc12.O=C(O)C(F)(F)F.O=C(O)C(F)(F)F (configuration not stated)	-17.49	-26.26
Fc1cccc(-c2nnn3c2COC(CNCc2nccs2)C3)c1.O=C(O)C(F)(F)F (configuration not stated)	-24.81	-21.59
c1ccc2oc(CN3CCCC3c3noc(C4CC4)n3)nc2c1 (configuration not stated)	-3.147	-21.75

From ChEMBL document CHEMBL3988442, “University of Dundee, Small-Polar-MMV Screening Library” (2021).